From PMC11542072 come the findings set out here.

Chains of the proteins cited; added tags and fusions are not shown.
UniProt Q12756: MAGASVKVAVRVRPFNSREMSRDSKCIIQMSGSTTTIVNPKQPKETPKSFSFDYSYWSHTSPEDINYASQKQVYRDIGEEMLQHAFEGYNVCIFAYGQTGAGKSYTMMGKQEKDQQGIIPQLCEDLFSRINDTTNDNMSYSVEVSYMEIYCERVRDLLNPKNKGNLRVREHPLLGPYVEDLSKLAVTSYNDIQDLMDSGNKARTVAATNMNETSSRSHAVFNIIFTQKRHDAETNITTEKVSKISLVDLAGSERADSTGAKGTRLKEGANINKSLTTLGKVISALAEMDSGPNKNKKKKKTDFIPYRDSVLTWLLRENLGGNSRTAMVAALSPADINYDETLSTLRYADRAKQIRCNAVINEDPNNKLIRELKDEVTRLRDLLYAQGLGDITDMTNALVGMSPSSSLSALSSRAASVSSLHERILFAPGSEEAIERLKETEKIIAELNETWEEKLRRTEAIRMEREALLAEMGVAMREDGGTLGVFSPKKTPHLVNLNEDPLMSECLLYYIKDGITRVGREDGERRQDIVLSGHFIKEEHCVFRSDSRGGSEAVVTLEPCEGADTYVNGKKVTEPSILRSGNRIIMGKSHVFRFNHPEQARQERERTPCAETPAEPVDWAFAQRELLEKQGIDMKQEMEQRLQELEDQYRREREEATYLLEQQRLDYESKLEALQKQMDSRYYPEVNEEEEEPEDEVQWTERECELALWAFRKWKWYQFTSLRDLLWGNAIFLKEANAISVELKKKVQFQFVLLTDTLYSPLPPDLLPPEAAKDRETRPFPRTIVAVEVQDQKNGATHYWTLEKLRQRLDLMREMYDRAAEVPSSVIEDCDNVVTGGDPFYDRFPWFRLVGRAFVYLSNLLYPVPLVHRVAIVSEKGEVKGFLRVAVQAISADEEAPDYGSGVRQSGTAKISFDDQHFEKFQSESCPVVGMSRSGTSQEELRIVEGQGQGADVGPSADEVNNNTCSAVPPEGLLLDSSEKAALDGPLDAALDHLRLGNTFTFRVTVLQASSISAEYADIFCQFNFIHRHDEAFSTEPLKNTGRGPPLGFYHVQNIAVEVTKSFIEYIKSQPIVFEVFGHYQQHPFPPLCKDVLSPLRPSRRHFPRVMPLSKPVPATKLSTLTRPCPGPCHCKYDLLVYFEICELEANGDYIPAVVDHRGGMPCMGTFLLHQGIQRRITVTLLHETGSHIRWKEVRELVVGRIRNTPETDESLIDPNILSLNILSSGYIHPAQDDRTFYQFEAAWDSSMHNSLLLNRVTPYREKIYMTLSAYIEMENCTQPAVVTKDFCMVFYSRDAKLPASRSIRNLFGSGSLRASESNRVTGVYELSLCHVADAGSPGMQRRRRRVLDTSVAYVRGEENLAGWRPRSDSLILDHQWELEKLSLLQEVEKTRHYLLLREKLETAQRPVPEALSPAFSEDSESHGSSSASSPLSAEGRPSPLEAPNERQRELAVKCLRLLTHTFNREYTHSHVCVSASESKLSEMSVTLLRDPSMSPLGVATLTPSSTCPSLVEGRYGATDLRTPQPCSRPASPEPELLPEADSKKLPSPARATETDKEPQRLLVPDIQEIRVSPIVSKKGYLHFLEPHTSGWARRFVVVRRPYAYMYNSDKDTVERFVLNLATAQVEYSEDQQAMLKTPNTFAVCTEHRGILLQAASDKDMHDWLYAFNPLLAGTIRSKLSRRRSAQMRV

These are yes or no findings as the source states them, for the method shown. Binding seen in cells or lysates may run through a third protein. Some binding calls cover weakened binding; strength is not graded here. Where a sequence is shown, tags or fusion partners need not be part of it.

The target of test [1] is Kinesin-like protein (KIF1A), in HEK293T cells (human (endogenous in HEK293T, or cDNA of Gene ID 547)) (UniProt Q12756). Nature of the test: co-IP; co-IP of KIF1A and OGT in HEK293T cells, Western blot. In general terms: A western blot detects proteins with antibodies after separation by electrophoresis.
Test [2] addresses Kinesin-like protein (KIF1A) (human (endogenous in LNCaP-AI and LNCaP)) (UniProt Q12756). The test can be described thus: co-IP; co-IP of KIF1A and OGT in LNCaP and LNCaP-AI cells, Western blot; more abundant in LNCaP-AI than in LNCaP cells.

B1: O-linked N-acetylglucosamine transferase (OGT), in HEK293T cells (enzyme, UniProt O15294 1-1046)
chain: MASSVGNVADSTEPTKRMLSFQGLAELAHREYQAGDFEAAERHCMQLWRQEPDNTGVLLLLSSIHFQCRRLDRSAHFSTLAIKQNPLLAEAYSNLGNVYKERGQLQEAIEHYRHALRLKPDFIDGYINLAAALVAAGDMEGAVQAYVSALQYNPDLYCVRSDLGNLLKALGRLEEAKACYLKAIETQPNFAVAWSNLGCVFNAQGEIWLAIHHFEKAVTLDPNFLDAYINLGNVLKEARIFDRAVAAYLRALSLSPNHAVVHGNLACVYYEQGLIDLAIDTYRRAIELQPHFPDAYCNLANALKEKGSVAEAEDCYNTALRLCPTHADSLNNLANIKREQGNIEEAVRLYRKALEVFPEFAAAHSNLASVLQQQGKLQEALMHYKEAIRISPTFADAYSNMGNTLKEMQDVQGALQCYTRAIQINPAFADAHSNLASIHKDSGNIPEAIASYRTALKLKPDFPDAYCNLAHCLQIVCDWTDYDERMKKLVSIVADQLEKNRLPSVHPHHSMLYPLSHGFRKAIAERHGNLCLDKINVLHKPPYEHPKDLKLSDGRLRVGYVSSDFGNHPTSHLMQSIPGMHNPDKFEVFCYALSPDDGTNFRVKVMAEANHFIDLSQIPCNGKAADRIHQDGIHILVNMNGYTKGARNELFALRPAPIQAMWLGYPGTSGALFMDYIITDQETSPAEVAEQYSEKLAYMPHTFFIGDHANMFPHLKKKAVIDFKSNGHIYDNRIVLNGIDLKAFLDSLPDVKIVKMKCPDGGDNADSSNTALNMPVIPMNTIAEAVIEMINRGQIQITINGFSISNGLATTQINNKAATGEEVPRTIIVTTRSQYGLPEDAIVYCNFNQLYKIDPSTLQMWANILKRVPNSVLWLLRFPAVGEPNIQQYAQNMGLPQNRIIFSPVAPKEEHVRRGQLADVCLDTPLCNGHTTGMDVLWAGTPMVTMPGETLASRVAASQLTCLGCLELIAKNRQEYEDIAVKLGTDLEYLKKVRGKVWKQRISSPLFNTKQYTMELERLYLQMWEHYAAGNKPDHMIKPVEVTESA
Regarding B1, the binding entry in test [1] is listed as “binds”.

B2: O-linked N-acetylglucosamine transferase (OGT) (enzyme, UniProt O15294 1-1046)
chain: MASSVGNVADSTEPTKRMLSFQGLAELAHREYQAGDFEAAERHCMQLWRQEPDNTGVLLLLSSIHFQCRRLDRSAHFSTLAIKQNPLLAEAYSNLGNVYKERGQLQEAIEHYRHALRLKPDFIDGYINLAAALVAAGDMEGAVQAYVSALQYNPDLYCVRSDLGNLLKALGRLEEAKACYLKAIETQPNFAVAWSNLGCVFNAQGEIWLAIHHFEKAVTLDPNFLDAYINLGNVLKEARIFDRAVAAYLRALSLSPNHAVVHGNLACVYYEQGLIDLAIDTYRRAIELQPHFPDAYCNLANALKEKGSVAEAEDCYNTALRLCPTHADSLNNLANIKREQGNIEEAVRLYRKALEVFPEFAAAHSNLASVLQQQGKLQEALMHYKEAIRISPTFADAYSNMGNTLKEMQDVQGALQCYTRAIQINPAFADAHSNLASIHKDSGNIPEAIASYRTALKLKPDFPDAYCNLAHCLQIVCDWTDYDERMKKLVSIVADQLEKNRLPSVHPHHSMLYPLSHGFRKAIAERHGNLCLDKINVLHKPPYEHPKDLKLSDGRLRVGYVSSDFGNHPTSHLMQSIPGMHNPDKFEVFCYALSPDDGTNFRVKVMAEANHFIDLSQIPCNGKAADRIHQDGIHILVNMNGYTKGARNELFALRPAPIQAMWLGYPGTSGALFMDYIITDQETSPAEVAEQYSEKLAYMPHTFFIGDHANMFPHLKKKAVIDFKSNGHIYDNRIVLNGIDLKAFLDSLPDVKIVKMKCPDGGDNADSSNTALNMPVIPMNTIAEAVIEMINRGQIQITINGFSISNGLATTQINNKAATGEEVPRTIIVTTRSQYGLPEDAIVYCNFNQLYKIDPSTLQMWANILKRVPNSVLWLLRFPAVGEPNIQQYAQNMGLPQNRIIFSPVAPKEEHVRRGQLADVCLDTPLCNGHTTGMDVLWAGTPMVTMPGETLASRVAASQLTCLGCLELIAKNRQEYEDIAVKLGTDLEYLKKVRGKVWKQRISSPLFNTKQYTMELERLYLQMWEHYAAGNKPDHMIKPVEVTESA
Take B2: the binding result in test [2] is listed as “binds”.
